In PubChem BioAssay AID1671190 (National Center for Advancing Translational Sciences (NCATS), 2021):
In all, about 580,000 compounds went through this assay and about 6,100 (1.1%) were called active. The shares of active, inactive and inconclusive entries below differ from those in the screen. Calls come from the whole dose curve; as a rule, active = well fitted inhibition curve with a large enough effect; inconclusive = small, poorly fitted or top-dose-only effect, or another doubt; inactive = no such curve, though single readings can be large or run the other way. Potencies of inconclusive entries are doubtful fits and often do not repeat.
% is set by controls: 0 for no effect and ±100 for the full control effect; potency is the fitted concentration of half-maximal effect.

By UniProt entry, the sequences of proteins in these tests, tags left out.
UniProt P18054, whole entry, looked up: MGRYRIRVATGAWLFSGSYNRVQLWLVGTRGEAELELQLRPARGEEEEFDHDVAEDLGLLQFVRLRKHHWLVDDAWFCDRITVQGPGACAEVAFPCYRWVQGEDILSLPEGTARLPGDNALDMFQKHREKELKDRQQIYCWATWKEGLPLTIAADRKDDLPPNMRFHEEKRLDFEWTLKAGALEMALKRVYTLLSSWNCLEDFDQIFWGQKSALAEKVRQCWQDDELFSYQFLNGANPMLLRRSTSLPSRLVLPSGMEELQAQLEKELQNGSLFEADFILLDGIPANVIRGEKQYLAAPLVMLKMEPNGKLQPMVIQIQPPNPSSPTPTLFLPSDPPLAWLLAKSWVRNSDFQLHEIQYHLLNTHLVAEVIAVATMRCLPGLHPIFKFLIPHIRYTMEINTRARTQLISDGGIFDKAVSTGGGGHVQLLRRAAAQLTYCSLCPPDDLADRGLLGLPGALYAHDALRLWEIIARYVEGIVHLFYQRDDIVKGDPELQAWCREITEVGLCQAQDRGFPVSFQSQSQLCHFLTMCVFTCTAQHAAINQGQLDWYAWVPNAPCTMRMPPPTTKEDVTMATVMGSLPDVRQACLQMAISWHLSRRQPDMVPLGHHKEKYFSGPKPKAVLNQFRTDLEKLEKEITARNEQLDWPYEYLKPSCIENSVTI

These compounds were tested against Polyunsaturated fatty acid lipoxygenase ALOX12 (Homo sapiens) (UniProt P18054) (assay: Primary qHTS assay for inhibitors of human arachidonate 12S-lipoxygenase (ALOX12): Round 2). Conditions: purified 12hLO, xylenol orange hydroperoxide absorbance; activity change, negative = inhibition: at 108 µM (top of the series) unless noted.
In short: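 Purified human 12hLO at 150 nM in 25 mM Hepes, 0.01% Triton X-100, pH 7.0, preincubated 15 min at room temperature with compound. Reaction started with 40 uM arachidonic acid, 30 min at room temperature. Hydroperoxide measured by Fe-xylenol orange, 573/405 nm absorbance ratio.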
For `CCN1CCN(Cc2ccc(NC(=O)c3ccc(C)c(NC(=O)c4ccnnc4)c3)cc2C(F)(F)F)CC1`, the Potency was inconclusive: 79.4 µM [inhibitor, partial curve, poor fit].
For `CC1=C(C(=O)Nc2ccccc2)C2(CCCCC2)C(C#N)=C(S)N1`, the Potency was inconclusive: 31.6 µM [inhibitor, partial curve].
`COc1ccc(NC(=O)CCCN2C(=O)/C(=C\c3ccco3)SC2=S)cc1` was tested, and the Potency was inconclusive: 50.1 µM [inhibitor, partial curve].
`O=C1OC(c2ccc3ccccc3c2O)(c2ccc3ccccc3c2O)c2ccccc21` was tested, and the Potency was active: 6.31 µM.
In the case of `CCCC(=O)NC(=S)Nc1ccc(C(C)=O)cc1`, the Potency is reported as “inactive”.
With `Cc1ccc(NCC(=O)c2ccccc2)cc1Cl` the Potency was inconclusive: 70.8 µM [inhibitor, partial curve, poor fit].
`COC(=O)c1c(C)n(-c2ccc(OC)cc2)c2ccc(O)cc12` was tested, and the Potency was inconclusive: 44.7 µM [inhibitor, partial curve, poor fit].
In the case of `NC(=O)c1cc(N)ccc1N1CCCC1`, the Potency is reported as inconclusive: 35.5 µM [inhibitor, partial curve, poor fit].
In the case of `COc1ccc(CC(=O)OCn2nnc3ccccc3c2=O)cc1`, the Potency is reported as “inactive”.
`COc1ccc(N2COC3c4cccc5cccc(c45)C32)cc1` (centres undefined) was tested, and the Potency was inconclusive: 39.8 µM [inhibitor, partial curve, poor fit].
With `Cc1ccc(N2Cc3c(NCCc4ccc(F)cc4)ncnc3N(C)CC2=O)cc1` the Potency was “inactive”.
In the case of `Cc1cccc2cc(CN(CCCO)C(=O)Nc3ccccc3Cl)c(=O)[nH]c12`, the Potency is reported as “inactive”.
With `FC(F)(F)c1cccc(Oc2ncnc3scc(-c4ccccc4)c23)c1` the Potency was “inactive”.
With `CC(=O)N1CCOc2ccc(S(=O)(=O)NCCc3ccc(Cl)cc3)cc21` the Potency was “inactive”.
With `CN1CCN(CCCC(=O)c2ccc(C3CCCC3)cc2)CC1` the Potency was inconclusive: 25.1 µM [inhibitor, partial curve, poor fit].
`O=C(O)CCc1ccc(-c2ccc(Br)cc2)n1-c1ccccc1O` was tested, and the Potency was inconclusive: 25.1 µM [inhibitor, partial curve, poor fit].
`O=C(c1ccc(-n2cccc2)cc1)N1CCN(S(=O)(=O)c2ccc(C(F)(F)F)cc2)CC1` was tested, and the activity change, negative = inhibition was inconclusive: -31.5% [inhibitor].
With `O=C(NC12CC3CC(CC(C3)C1)C2)C12CC3CC(C1)CC(c1ccccc1)(C3)C2` the Potency was inconclusive: 112 µM [inhibitor, single point].
In the case of `COc1cc(=O)n(-c2ccccc2C)nc1C(=O)NCc1ccc(Cl)cc1`, the Potency is reported as inconclusive: 3.98 µM [inhibitor, full curve, poor fit].
With `CCc1ccc(NC(=O)COc2ccc(F)cc2C(=O)c2cnn(-c3ccccc3)c2)cc1` the Potency was “inactive”.
With `CCCCN(CC)CCNC(=O)Cn1cnc2sc(C)c(S(=O)(=O)N3CCN(c4ccccc4OC)CC3)c2c1=O` the Potency was inconclusive: 112 µM [inhibitor, partial curve, poor fit].
`COc1ccc(NC(=O)CCc2nc(-c3ccc(C)n(C(C)C)c3=O)no2)c(OC)c1` was tested, and the Potency was “inactive”.
`CCOc1ccc2nc(N3CCCC(C(=O)NCCc4ccc(OC)cc4OC)C3)sc2c1` (centres undefined) was tested, and the Potency was “inactive”.
For `C[C@]1(CO)C2CC[C@@H](O)[C@@H](CC(=O)NCc3cccs3)[C@]2(C)CC[C@H]1OC(=O)Nc1cccc(F)c1` (some centres undefined), the Potency was inconclusive: 28.2 µM [inhibitor, partial curve].
With `CC(=O)N1CCc2cc(S(=O)(=O)NC(Cc3ccccc3)C(=O)NC3CCCCCC3)ccc21` (centres undefined) the Potency was inconclusive: 20 µM [inhibitor, partial curve, poor fit].
For `Cc1cccc(-c2ccc3c(c2)C2CC3CCN2)c1` (centres undefined), the Potency was inconclusive: 44.7 µM [inhibitor, partial curve, poor fit].
For `COc1ccc(C(=O)NC(Cc2c[nH]c3ccccc23)C(=O)O)cc1` (centres undefined), the Potency was “inactive”.
For `CCOC(=O)[C@]12CCC=C1N(Cc1ccc(Cl)cc1Cl)C(=O)[C@H](CC(=O)NCC13CC4CC(CC(C4)C1)C3)C2`, the Potency was inconclusive: 89.1 µM [inhibitor, single point].
`COc1ccccc1Oc1cn[nH]c1-c1ccc(O)cc1O` was tested, and the Potency was “inactive”.
In the case of `COCC(C)NC(=O)c1cc2ccccc2oc1=O` (centres undefined), the Potency is reported as “inactive”.
`O=C(Nc1ccc(F)c(Cl)c1)c1cc(S(=O)(=O)NCc2ccc3c(c2)OCO3)ccc1F` was tested, and the Potency was inconclusive: 89.1 µM [inhibitor, partial curve, poor fit].
With `COc1cc(/C=N/OCCOc2ccc(C)cc2)cc(Cl)c1OC` the Potency was “inactive”.
For `COc1ccc2[nH]c3c(c2c1)CCN1C(=O)C(CC(=O)NCc2cccc(C(F)(F)F)c2)C[C@H](C(=O)N2CCCCC2)[C@@]31C` (some centres undefined), the Potency was “inactive”.
With `CCOC(=O)N1CCc2c(sc3nc4n(c(=O)c23)N=C(c2ccc(OC)cc2)CS4)C1` the Potency was inconclusive: 100 µM [inhibitor, single point].
With `C/C(=N/N=C(c1ccccc1)c1ccccc1)c1ccncc1` the Potency was “inactive”.
In the case of `O=C(NCCc1ccccc1)C1CCCN1C(=O)Nc1ccc(Cl)cc1` (centres undefined), the Potency is reported as inconclusive: 25.1 µM [inhibitor, full curve].
For `O=C(NCC1CCCO1)c1cc(-c2ccccc2)nc2ccc(Br)cc12` (centres undefined), the Potency was “inactive”.
In the case of `CC(=O)NC1(C)CCN(Cc2ccccc2-c2ccccc2Oc2ccccc2)C1` (centres undefined), the Potency is reported as active: 35.5 µM.
`c1cc2c(cc1CNc1ccc(N3CCOCC3)cc1)OCO2` was tested, and the Potency was inconclusive: 39.8 µM [inhibitor, partial curve].
With `O=C(Nc1nnc(C2CC2)s1)C1CC(c2cccc(F)c2)=NO1` (centres undefined) the Potency was “inactive”.
With `CC(C)(C)C(CN1CCCC1)OC(=O)c1ccccc1C(=O)O` (centres undefined) the Potency was inconclusive: 5.62 µM [inhibitor, full curve].
In the case of `CCOC(=O)Cc1ccc(NC(=O)Nc2nnc(N3CCCCC3C)s2)cc1` (centres undefined), the Potency is reported as “inactive”.
With `Clc1cccc(Cc2c(-c3ccco3)nc3ccc(Br)cn23)c1` the Potency was active: 11.2 µM.
With `NC(=O)c1ccccc1NC(=O)C(=O)c1c[nH]c2ccccc12` the activity change, negative = inhibition was inconclusive: -62.9% [inhibitor].
`CN(CC(=O)Nc1ccc(C(F)(F)F)cc1)C1CCc2ccccc21` (centres undefined) was tested, and the Potency was inconclusive: 50.1 µM [inhibitor, partial curve, poor fit].
In the case of `COc1ccc(N2C(=O)[C@H]3[C@@H](C2=O)C2c4ccccc4C=NN2[C@H]3C(=O)C(C)(C)C)cc1` (some centres undefined), the Potency is reported as inconclusive: 112 µM [inhibitor, single point].
In the case of `COc1ccc(N(C(C)C(=O)N2CCCC2)S(C)(=O)=O)cc1` (centres undefined), the Potency is reported as “inactive”.
In the case of `Cc1cc(C(=O)COc2cccnc2[N+](=O)[O-])c(C)n1Cc1cccs1`, the Potency is reported as inconclusive: 3.55 µM [inhibitor, full curve, poor fit].
In the case of `O=C(CCc1cccnc1)NC12CC3CC(CC(C3)C1)C2`, the Potency is reported as “inactive”.
`O=C1N(Cc2cccc(F)c2F)CCCC1(O)CNCc1ccccc1` (centres undefined) was tested, and the Potency was inconclusive: 89.1 µM [inhibitor, partial curve, poor fit].
For `Cc1cc(F)ccc1NC(=O)c1ccn(Cn2nnc(-c3ccccc3)n2)n1`, the Potency was “inactive”.
For `Cc1cccc(N2CCN(C(=O)CN3CC4(CCCCC4)CC3=O)CC2)n1`, the Potency was “inactive”.
In the case of `COC1=C(OC)C(=O)C(CC=C(C)CCC=C(C)CCC=C(C)CCC=C(C)CCC=C(C)CCC=C(C)CCC=C(C)CCC=C(C)CCC=C(C)CCC=C(C)C)=C(C)C1=O`, the Potency is reported as inconclusive: 6.85 µM [inhibitor, partial curve, poor fit].
For `CC(NC(=O)CCCc1c[nH]c2ccccc12)c1cccc(F)c1` (centres undefined), the Potency was inconclusive: 126 µM [inhibitor, single point].
`CNC(=O)c1cc(SC)ccc1C` was tested, and the Potency was “inactive”.
In the case of `O=c1c2cc(N3CCOCC3)ccc2[nH]c(=S)n1CCc1ccccc1`, the Potency is reported as “inactive”.
In the case of `C[n+]1ccccc1C1CCCC/C1=N\Nc1ccc([N+](=O)[O-])cc1[N+](=O)[O-]` (centres undefined), the Potency is reported as inconclusive: 44.7 µM [inhibitor, partial curve, poor fit].
In the case of `Cc1cccc(NC(=S)Nc2ccc(S(=O)(=O)Nc3ccccc3)cc2)c1`, the Potency is reported as inconclusive: 56.2 µM [inhibitor, partial curve, poor fit].
In the case of `Cc1cccc(-n2c(=O)c3c(cc(C)n3C)n(CC(=O)Nc3c(C)cccc3C)c2=O)c1`, the Potency is reported as active: 70.8 µM.
For `COc1ccc(-c2coc3c(C(=O)NCCN(C)C)cccc23)c(C)c1`, the Potency was inconclusive: 56.2 µM [inhibitor, partial curve, poor fit].
`Cc1c(/C=C/C(=O)c2ccccc2)cnn1C` was tested, and the Potency was “inactive”.
In the case of `Cc1nc([N+](=O)[O-])c(Br)n1CC(=O)c1ccc(Br)cc1`, the Potency is reported as inconclusive: 79.4 µM [inhibitor, single point].
`C=CCn1c(COc2ccc(OC)cc2)nc2ccccc21` was tested, and the Potency was inconclusive: 39.8 µM [inhibitor, single point].
In the case of `CS(=O)(=O)Nc1cccc(-c2nccc(NCc3ccccc3)n2)c1`, the Potency is reported as inconclusive: 39.8 µM [inhibitor, partial curve, poor fit].
`CCC(=O)N1CCc2cc(Br)cc(S(=O)(=O)NCCc3ccc(C)cc3)c21` was tested, and the Potency was inconclusive: 6.31 µM [inhibitor, full curve, poor fit].
In the case of `Cc1cccc(OC(=O)c2snnc2C)c1C`, the Potency is reported as inconclusive: 56.2 µM [inhibitor, partial curve, poor fit].
With `O=C(NNc1ccccc1C(F)(F)F)c1cccs1` the Potency was inconclusive: 44.7 µM [inhibitor, partial curve, poor fit].
With `CCOC(=O)C1=C(COc2ccccc2)NC(=O)NC1c1ccc2ccccc2c1` (centres undefined) the Potency was inconclusive: 79.4 µM [inhibitor, partial curve, poor fit].
With `COc1ccc(-c2noc([C@@H]3C[C@@H](O)CN3Cc3ccccc3)n2)cc1` the Potency was inconclusive: 28.2 µM [inhibitor, full curve, poor fit].
